Here are results for one molecule from PMC2978108.

Amino acid sequences for entries named in this document (tags omitted).
UniProt P13466: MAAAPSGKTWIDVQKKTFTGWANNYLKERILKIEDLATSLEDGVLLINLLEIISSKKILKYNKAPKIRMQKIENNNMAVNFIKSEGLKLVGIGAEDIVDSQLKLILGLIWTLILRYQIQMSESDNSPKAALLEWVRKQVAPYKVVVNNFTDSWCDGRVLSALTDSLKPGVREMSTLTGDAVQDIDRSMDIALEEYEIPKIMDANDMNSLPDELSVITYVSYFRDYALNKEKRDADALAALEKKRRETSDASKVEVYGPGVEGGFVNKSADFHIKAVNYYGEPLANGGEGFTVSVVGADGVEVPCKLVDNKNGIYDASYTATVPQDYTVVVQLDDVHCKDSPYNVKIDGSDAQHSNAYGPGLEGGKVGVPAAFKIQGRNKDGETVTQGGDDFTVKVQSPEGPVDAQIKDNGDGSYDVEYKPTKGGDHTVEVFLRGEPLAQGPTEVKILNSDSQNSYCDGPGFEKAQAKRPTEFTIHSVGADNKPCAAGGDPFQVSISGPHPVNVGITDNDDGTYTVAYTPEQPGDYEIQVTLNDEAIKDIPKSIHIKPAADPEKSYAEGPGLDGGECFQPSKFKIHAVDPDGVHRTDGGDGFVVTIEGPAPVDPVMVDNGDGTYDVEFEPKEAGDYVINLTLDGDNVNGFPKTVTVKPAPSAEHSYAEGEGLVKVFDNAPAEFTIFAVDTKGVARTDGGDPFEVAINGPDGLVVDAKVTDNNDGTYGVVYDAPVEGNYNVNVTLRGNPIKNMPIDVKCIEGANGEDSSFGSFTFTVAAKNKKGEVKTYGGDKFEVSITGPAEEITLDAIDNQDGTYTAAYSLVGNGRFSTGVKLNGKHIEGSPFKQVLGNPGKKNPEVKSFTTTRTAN

No constants are given. Whether binding was seen depends on the method and setting. Binding seen in cells or lysates may run through a third protein. These calls come from enrichment with a bait or labelling near it, and not all partners need be listed.

This assay deals with Filamin (endogenous, D. discoideum) (D. discoideum (endogenous in AX2)) (UniProt P13466). The experiment in a line: affinity purification with mass spectrometry; immunoprecipitation with Filamin monoclonal antibodies followed by MALDI-TOF mass spectrometry.

B1: GAPA (found in the Filamin immunoprecipitate) (protein, UniProt O00899 1-860)
chain: MEGLEIEDEDVILLDEDDDSSSSSTVNNSSSNIKNNGNTNNNIGNDDSNKVTLMTSLREKGWGSGMLVDKEKNQYGTIKSYKDDKSSPWFEERQVIATLYKARVLLHEMIYTKMNQERLLSGNLCVGEIQSLLNTQKEDVETDWIAEIQELKRNMVAEIRRNHLLERDVNKLDKRIALLIKHRSNIKDLLLEQNKGKKDKKKKGDDKAEYITLDQKQLESYQNLFYLLQTEPHYLAKLVTLIQADQMEDFLDTVFLTLFGDDFSPREEFLILSLFRLAIGQEMSRIKSAGDLLAVESVVPKMIITYTRRKQGHEFLKQIIAPILENNVVNAPDLNLELNAVQVYQNMISEQEIQTGAKSTLNRGLAEDQIIQLKEVQSILEPRVEKCIQICERFFTGIIQSLNRLPYGIRWICKQIQSIAQKNFDSKPDEIAKVIGYFVYYRFINLAIVTPDAFEILDKELSITSRKNLVNIAKVLQNLFTLKTFQNQGSERWMQPLNKWILSKTSIVRQYLEDLIQVTDPSEYLRVDKYNELTLKLNPVVVISLGEISQTHRLLIANLAALKMKEKEDPLELILKALPAPLEVVDENDREIQLTLINRFKENIEKEISISASLLAETKELVISVLRSIPIQQKQQQQQHDDEKRDDLISILQNAIKHGKETNNPQLSSNAEKIINNLKKMEAEGSIQSENNQYEGFIKVIALEVINRQEIREQQRKERMRLTIALRDLRKHQSYLNDQIQHYTSYLKDVLLHYGPKDKKKSTKPMKISFKELTKKGVIVESDIPKLSHGSTSFYISSDAPGIFDIEARIGVASVGTLSLSLDDLLDKSSAGIPYLKLENIVLDVNMTLHLLNRHFLKNI
Take B1: the binding entry is “binds”.
